Assay results reported in PubChem BioAssay.
This is one part of the list. Entries with a potency or affinity are not part of this list. Where no call is shown, the source marks the result inconclusive.

Assays:
[1] = Drosophila SCA1 whole organism dose response for polyglutamine toxicity reduction (AID 1595); conditions: Drosophila SCA1 polyglutamine model, at 1 µM, stronger effect = higher value
PubChem AID 1597 = conditions: Drosophila SCA1 polyglutamine model, at 1 µM, stronger effect = higher value

Row | SMILES | suppression of toxicity [1] | suppression of toxicity (PubChem AID 1597)
1 | Cc1cccc(Nc2ccccc2C(=O)O)c1C | 8.57 | 5.71
2 | O=C(O)c1ccc(S(=O)(=O)N(Cl)Cl)cc1 | 25.7 | 8.57
3 | OC[C@H]1O[C@@H](O[C@@H]2[C@@H](CO)O[C@](O)(CO)[C@H]2O)[C@H](O)[C@@H](O)[C@H]1O | 7.14 | 16.4
4 | CCN(CCCc1ccccc1)CCCc1ccccc1 (tested in a mixture with another compound) | 1.43 | 2.15
5 | CN(C)CC/C=C1/c2ccccc2COc2ccccc21 | 1.43 | 6.43
6 | Cn1c([N+](=O)[O-])cnc1COC(N)=O | 0 | 12.9
7 | C=CCSCC1Nc2cc(Cl)c(S(N)(=O)=O)cc2S(=O)(=O)N1 (centres undefined) | 0 | 2.15
8 | CCCC(CCC)C(=O)O | 0 | 0.715
9 | COc1c(C)c2c(c(O)c1C/C=C(\C)CCC(=O)O)C(=O)OC2 | 2.85 | 11.4
10 | CCN(CC)CCOc1ccc(/C(=C(\Cl)c2ccccc2)c2ccccc2)cc1 | 0 | 0
11 | C[C@]12C=CC(=O)C=C1CCC1C2[C@@H](O)C[C@@]2(C)C1CC[C@]2(O)C(=O)CO (some centres undefined) | 1.43 | 10
12 | O=C(C1CCCCC1)N1CC(=O)N2CCc3ccccc3C2C1 (centres undefined) | 0 | 2.15
13 | CC1CCc2cc(F)cc3c(=O)c(C(=O)O)cn1c23 (centres undefined) | 1.43 | 0.715
14 | CCCC(=O)O[C@]1(C(=O)CO)CCC2[C@@H]3CCC4=CC(=O)CC[C@]4(C)C3[C@@H](O)C[C@@]21C (some centres undefined) | 2.86 | 7.14
15 | C[C@]12CCC3c4ccc(O)cc4CCC3C1CC[C@@H]2OC(=O)CCC1CCCC1 (some centres undefined) | 0 | 1.43
16 | CCCOc1ccccc1-c1nc2n[nH]nc2c(=O)[nH]1 | 0 | 2.15
17 | CCCCC(=O)OC1(C(=O)CO)C(C)CC2C3CCC4=CC(=O)C=CC4(C)[C@@]3(F)[C@@H](O)CC21C (some centres undefined) | 4.29 | 7.14

Single entries from the list.
Under suppression of toxicity (PubChem AID 1597), CCCCC(=O)OC1(C(=O)CO)C(C)CC2C3CCC4=CC(=O)C=CC4(C)[C@@]3(F)[C@@H](O)CC21C (some centres undefined) has 7.14
Under suppression of toxicity (PubChem AID 1597), CCCC(CCC)C(=O)O has 0.715
